According to PubChem BioAssay AID2685 (National Center for Advancing Translational Sciences (NCATS), 2010):
The whole screen tested about 320,000 compounds, of which about 2,100 (0.66%) were called active. Inconclusive means that the source gave no clear call. Such entries were picked first, then a sample of the others. The call rests on the fitted dose curve; in most records, active means well fitted inhibition curve with a large enough effect in the signal ratio, with a control signal flat (not every such curve was filed as active); inconclusive means small, poorly fitted or top-dose-only effect, or effect the other way, or a change in a side signal; inactive means flat fitted curve, though single readings scatter; the % refers to the signal ratio. Potencies beside an inconclusive call are fits to weak or partial responses and may not hold up.

assay: qHTS Assay for Lipid Storage Modulators in Drosophila S3 Cells; conditions: BODIPY lipid droplet fluorescence, 18-24 h, cells fed with added oleic acid; lipid storage change, negative = inhibition: at 46.1 µM (top of the series) unless noted
Summary of the method: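 Drosophila S3 cells got compounds at several concentrations plus oleic acid (400 uM solution). Laser-scanning cytometry with 488 nm excitation read lipid droplets at 500-530 nm and cells at 575-640 nm. Percent activity was relative to 20 uM Triacsin C.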
On the % scale 0 is the no-effect control and ±100 the full control effect; potency means the concentration at half of the fitted maximal effect.

| SMILES | lipid storage change, negative = inhibition | Potency |
| --- | --- | --- |
| CC(=O)c1cccc(N=Cc2c(O)c3ccccc3oc2=O)c1 | inconclusive: -15.8% |  |
| Cc1ccc(S(=O)(=O)N2[C@@H](c3cccc(Cl)c3)C(C(=O)O)=CC[C@H]2c2ccc(C(C)C)cc2)cc1 |  | inconclusive: 29.1 µM [falling, single point] |
| Cc1cc(C)c2c(N)c(C(=O)N/N=C/c3cccnc3)sc2n1 | inconclusive: -12.3% |  |
| Cc1ccc(C)c(NS(=O)(=O)c2ccc(OCC(=O)NCc3ccco3)cc2)c1 |  | inconclusive: 6.51 µM [rising, full curve] |
| CCCCNC(=S)N(C)/N=C/c1ccc(F)cc1 |  | inconclusive: 9.2 µM [falling, partial curve] |
| Cc1ccc(S(=O)(=O)C2CCOC2=O)cc1 (stereo not drawn) |  | inconclusive: 6.51 µM [activator, single point] |
| COc1ccc(Cn2nnnc2C(c2ccccc2OC)N2CCC(C(N)=O)CC2)cc1 (stereo not drawn) | inconclusive: 12.7% |  |
| C=CCC1(C(=O)NCCO)CCN(C(=O)OC(C)(C)C)CC1 | inconclusive: 16.1% |  |
| O=C(Cc1cccc2ccccc12)N/N=C/c1ccc(Sc2cccc3cccnc23)o1 | inconclusive: -22.7% |  |
| C=CCN1C(=O)C(Cc2ccc(OC)cc2)S/C1=N\N=C\c1cccs1 (stereo not drawn) |  | inconclusive: 0.291 µM [activator, partial curve, poor fit] |
| CCOC(=O)c1sc(N(Cc2ccccc2)C(=O)COC(=O)c2ccccc2O)nc1C | inconclusive: 21.2% |  |
| c1ccc(C2=Nn3c(nnc3-c3ccncc3)SC2)cc1 |  | inconclusive: 1.16 µM [activator, partial curve, poor fit] |
| Nc1c2ccccc2nc2ccccc12 | inconclusive: -17.6% |  |
| COc1ccc(CNC(=S)Nc2ccccc2)cc1Cl | inactive |  |
| C/C=C/c1ccc(OCC(O)CN2CCCCCCC2)c(OC)c1 (stereo not drawn) |  | inconclusive: 20.6 µM [cytotoxic, partial curve] |
| CC(=O)Nc1sc(-c2ccccc2)nc1-c1ccccc1 | inconclusive: 0.201% |  |
| CCOc1ccccc1N1CCN(C(=O)CCCN2C(=O)c3cccc4cccc(c34)C2=O)CC1 | inconclusive: -25.4% |  |
| Cc1ccc(NC(=O)c2sc3nc[nH]c(=O)c3c2C)c(C)c1 |  | inconclusive: 20.6 µM [falling, single point] |
| CCOC(=O)C1CCCCN1Cc1ccc(F)cc1 (stereo not drawn) |  | inconclusive: 32.6 µM [falling, partial curve] |
| CCOc1ccc(NC(=O)CN2C(=O)COc3ccc(S(=O)(=O)N4CCCCC4)cc32)cc1 |  | inconclusive: 16.4 µM [activator, partial curve, poor fit] |
| COCCCNC(=O)Cn1cnc2sc(C)c(S(=O)(=O)N3CC(C)CC(C)C3)c2c1=O (stereo not drawn) | inconclusive: -0.909% |  |
| N#C/C(=C(/O)Cc1ccccc1)P(=O)(c1ccccc1)c1ccccc1 | inconclusive: 18.1% |  |
| S=C(c1ccc(-c2ccc(Br)cc2)o1)N1CCOCC1 | inconclusive: -13.7% |  |
| Cc1nc(-c2ccc(F)cc2)c(CC(=O)N(C)CC(=O)Nc2ccccc2Br)s1 | inconclusive: 33.1% |  |
| CCOc1ccc(CCNC(=O)CCn2ccc3cc(S(=O)(=O)N4CCCC4)ccc32)cc1 |  | inconclusive: 2.06 µM [activator, partial curve, poor fit] |

Nothing new here: an excerpt of the list.

| SMILES | lipid storage change, negative = inhibition | Potency |
| --- | --- | --- |
| COc1ccc(CNC(=S)Nc2ccccc2)cc1Cl | inactive |  |
| C/C=C/c1ccc(OCC(O)CN2CCCCCCC2)c(OC)c1 (stereo not drawn) |  | inconclusive: 20.6 µM [cytotoxic, partial curve] |

Next compounds

| SMILES | lipid storage change, negative = inhibition | Potency |
| --- | --- | --- |
| Cc1cc(O)c(-c2cc(C(=O)NCc3ccc4c(c3)OCO4)[nH]n2)cc1C | inconclusive: 5.31% |  |
| COc1ccccc1-c1nnc2sc(-c3cc4ccccc4o3)nn12 | inconclusive: 11.7% |  |
| CCc1ccc(CNC(=O)CCS(=O)(=O)Cc2ccc(C)cc2)cc1 |  | inconclusive: 29.1 µM [activator, single point] |
| CCn1cc(C(=O)N2CCN(c3ccc(OC)cc3)CC2)c(=O)c2cc(S(=O)(=O)N3CCOCC3)ccc21 | inconclusive: 11.3% |  |
| Cc1ccc(N(C)S(=O)(=O)c2cccc(C(=O)OCC(=O)N3CCCC(C)C3)c2)cc1 (stereo not drawn) | inconclusive: 14.3% |  |
| COc1cc2c(cc1OC)C(C1(O)CCCCC1)NCC2 (stereo not drawn) | inconclusive: 2.26% |  |
| CC(C)c1ccc(-n2c(-c3ccccc3)c[n+]3c2CCc2ccccc2-3)cc1 | inconclusive: -100% |  |
| Cc1cc(C(=O)NC(C)C2CC2)c(Cl)cc1Cl (stereo not drawn) |  | inconclusive: 10.3 µM [activator, partial curve] |
| Cc1cccc(C)c1NC(=O)C(C)Sc1nnc(C)n1CC1CCCO1 (stereo not drawn) |  | inconclusive: 1.3 µM [falling, full curve] |
| N#CCc1ccc(NS(=O)(=O)c2ccc(C3CCCCC3)cc2)cc1 |  | inconclusive: 18.4 µM [falling, single point] |
| COc1ccc(NC(=O)c2cc(S(=O)(=O)N3CCCCC3)c[nH]2)c(OC)c1 | inconclusive: 36.7% |  |
| CCOc1ccc(NC(=O)NC23CC4CC(CC(C4)C2)C3)cc1 |  | inconclusive: 20.6 µM [falling, partial curve] |
| O=C(/C=C/c1ccc([N+](=O)[O-])cc1)NCCN1C(=O)S/C(=C\c2ccc(F)cc2)C1=O | inconclusive: -29.3% |  |
| CC(=O)c1ccc(Oc2cc(-c3ccccc3)nc(-c3ccccc3)n2)cc1 | inconclusive: 37.5% |  |
| COc1ccc(C2=NS(=O)(=O)N(C)C(C(=O)Nc3ccc4c(c3)OCO4)=C2)cc1 | inconclusive: -8.7% |  |
| COC(=O)Nc1ccc(S(=O)(=O)Nc2cnc3ccccc3n2)cc1 | inconclusive: 11.7% |  |
| CCN1C(=O)/C(=c2\sc3nc(=O)c(Cc4ccccc4)nn3c2=O)c2ccccc21 | inactive |  |
| CC(=O)Nc1ccc(C(=O)Nc2cccc(S(=O)(=O)N(C)c3ccccc3)c2)cc1 |  | inconclusive: 0.013 µM [falling, full curve, poor fit] |
| CC(C)(C)[C@@H]1C=C(C(=O)N2CCN(Cc3ccc4c(c3)OCO4)CC2)O[C@H](OCc2ccc(CO)cc2)C1 |  | inconclusive: 13 µM [falling, partial curve, poor fit] |
| CCN(CC)CCN1C(=O)C(=O)/C(=C(/O)c2ccc(S(=O)(=O)N3CCOCC3)cc2)C1c1ccc(C(C)C)cc1 (stereo not drawn) | inconclusive: 74% |  |
| O=C(CSc1nnc(NC(=O)c2ccc(F)cc2F)s1)NC1CC1 |  | inconclusive: 10.3 µM [activator, partial curve] |
| Cc1cc(C)n2nc(C(=O)N/N=C/c3ccccc3C)nc2n1 |  | inconclusive: 25.9 µM [falling, single point] |
| CCCCCCN1C2=NCCN2c2ccccc21 | inconclusive: -36.3% |  |
| Cc1cc(C)n(Cc2n[nH]c(=S)n2Cc2ccccc2)n1 | inconclusive: 457% |  |
| Cc1ccc(O)c(NC(=O)c2onc(C)c2Cl)c1 | inconclusive: 180% |  |

| SMILES | lipid storage change, negative = inhibition | Potency |
| --- | --- | --- |
| COc1ccc(-n2c(SC3CCOC3=O)nc3ccccc32)cc1 (stereo not drawn) | inconclusive: 0.759% |  |
| CCCCNC(=O)c1ccc2c(c1)S(=O)(=O)c1ccccc1C2=O |  | inconclusive: 10.3 µM [activator, partial curve] |
| COc1ccc(NC(=O)CSc2nnc(-c3ccccc3F)n2C2CC2)cc1S(N)(=O)=O |  | inconclusive: 0.13 µM [rising, full curve] |
| O=C(c1cccc2nccnc12)N1CCCC(Nc2ccc(F)c(F)c2)C1 (stereo not drawn) | inconclusive: 17.7% |  |
| CC(C)c1ccc(NC(=O)N(CCc2nc3ccccc3[nH]2)C2CCCC2)cc1 | inconclusive: -77.9% |  |
| COc1ccc(-n2c(C(C)(C)C)csc2=Nc2c(C)n(C)n(-c3ccccc3)c2=O)cc1 |  | inconclusive: 1.64 µM [falling, single point] |
| Cc1cc2cc(CNC(=O)COc3ccccc3)ccc2n1C | inconclusive: 44.1% |  |
| Cc1ccc(NC(=O)c2ccc(OCc3c(C)noc3C)cc2)nc1 | inconclusive: -3.13% |  |
| CCC1(C)Cc2ccccc2-c2nc3n(c(=O)c21)CCCCC3 (stereo not drawn) |  | inconclusive: 0.58 µM [falling, single point] |
| O=C(COC(=O)c1ccccc1Nc1cccc(C(F)(F)F)c1)NCc1ccco1 | inconclusive: -0.914% |  |
| CC(C)N(Cc1nccn1C)C(=O)c1ccc(OC2CCN(C(=O)C3CC3)CC2)cc1 | inconclusive: -18.5% |  |
| Cc1ccc(N2C(=O)NC(NC(=O)C3CC3)(C(F)(F)F)C2=O)cc1 (stereo not drawn) |  | inconclusive: 2.91 µM [activator, single point] |
| Cc1c2cnn(CC(=O)Nc3c(F)c(F)cc(F)c3F)c(=O)c2c(C)n1Cc1ccc(F)cc1 | inconclusive: 37.5% |  |
| CC1CC1C(=O)OCC(=O)NC(=O)c1ccccc1 (stereo not drawn) | inconclusive: 88.3% |  |
| CCOc1cc(-c2nc(-c3ccncc3)no2)cc(OCC)c1OCC |  | inconclusive: 0.13 µM [activator, full curve, poor fit] |
| C#CC[N+](CC)(CC)CC#Cc1cccc(Cl)c1 | inconclusive: -26% |  |
| CN(C(=O)COC(=O)c1ccc([N+](=O)[O-])cc1)c1ccccc1 | inconclusive: 21.7% |  |
| COc1cccc(NC(=O)CN(C)C(=O)CN2C(=O)NC3(CCCC3)C2=O)c1 |  | inconclusive: 2.31 µM [activator, full curve] |
| Cc1ccc2nc(C)cc(C(=O)N3CCCC(N4CCN(c5ccccc5C)CC4)C3)c2c1 (stereo not drawn) | inconclusive: 20.6% |  |
| Cc1noc2ncnc(Oc3ccccc3Cl)c12 | inconclusive: -39.4% [cytotoxic] [at 0.00295 µM] |  |
| O=C1N[C@@H](Cc2cnc[nH]2)C(=O)N2CCC[C@@H]12 | inconclusive: -0.392% |  |
| COc1ccccc1CN(C)C(=O)CSc1nnc(C2CC2)n1C1CC1 | inconclusive: 2.08% |  |
| CCCCOC(=O)C(C#N)c1nc2ccccc2nc1N1CCOCC1 (stereo not drawn) | inconclusive: 113% |  |
